The target in the assay is AGAMOUS (AG), full length (A. thaliana) (UniProt P17839). Nature of the assay: native gel or EMSA; in vitro translated proteins (4 ul TnT mix, not purified) with 5-10 nM DY-682 labelled 121 bp SOC1 promoter DNA with two CArG boxes; complexes seen on DNA, assigned as putative dimer and tetramer. In general terms: In EMSA bound probe runs differently from free probe, usually more slowly.

Amino acid sequences for entries named in this document (tags omitted). A change or cut given only in a name is not applied to a line headed by its entry.
UniProt P17839: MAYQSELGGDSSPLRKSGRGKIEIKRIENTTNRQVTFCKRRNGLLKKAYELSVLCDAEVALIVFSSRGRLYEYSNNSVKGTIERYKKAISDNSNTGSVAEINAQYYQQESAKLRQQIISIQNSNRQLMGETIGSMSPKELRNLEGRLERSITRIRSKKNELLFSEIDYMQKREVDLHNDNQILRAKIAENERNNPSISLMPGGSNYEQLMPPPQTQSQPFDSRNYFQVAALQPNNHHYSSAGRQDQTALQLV
UniProt O22456: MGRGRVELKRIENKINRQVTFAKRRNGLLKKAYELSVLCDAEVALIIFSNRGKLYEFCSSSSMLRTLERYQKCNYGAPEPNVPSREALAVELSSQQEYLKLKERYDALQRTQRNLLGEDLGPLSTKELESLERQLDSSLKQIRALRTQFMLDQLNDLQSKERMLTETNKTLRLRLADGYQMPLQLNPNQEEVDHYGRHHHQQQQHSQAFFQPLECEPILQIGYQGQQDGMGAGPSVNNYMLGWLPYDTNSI

Results are given in words; binding and its absence hold for the method and conditions named. Some binding calls cover weakened binding; strength is not graded here.

Take SEP3^L115R (from UniProt O22456 1-251): the binding result was “binds”.
For “SEP3 full length wild type (from UniProt O22456 1-251)”, the binding result is “binds”.

For the origin of these results see article PMC4701952.
